Patent US6716597B2, “Methods and products for regulating cell motility” (priority 2000, dated 2004)
Where two headings read alike, the source gives them in different places.

Test system: Mena

B1: EGFP-Mena: EGFP fused to full-length Mena (amino acids 1-541 of SEQ ID NO: 2), expressed from retroviral vector pMSCV (protein)
chain: MSEQSICQARAAVMVYDDANKKWVPAGGSTGFSRVHIYHHTGNNTFRVVGRKIQDHQVVINCAIPKGLKYNQATQTFHQWRDARQVYGLNFGSKEDANVFASAMMHALEVLNSQEAAQSKVTATQDSTNLRCIFCGPTLPRQNSQLPAQVQNGPSQEELEIQRRQLQEQQRQKELERERMERERLERERLERERLERERLEQEQLERQRQEREHVERLERERLERLERERQERERERLEQLEREQVEWERERRMSNAAPSSDSSLSSAPLPEYSSCQPPSAPPPSYAKVISAPVSDATPDYAVVTALPPTSTPPTPPLRHAATRFATSLGSAFHPVLPHYATVPRPLNKNSRPSSPVNTPSSQPPAAKSCAWPTSNFSPLPPSPPIMISSPPGKATGPRPVLPVCVSSPVPQMPPSPTAPNGSLDSVTYPVSPPPTSGPAAPPPPPPPPPPPPPPPLPPPPLPPLASLSHCGSQASPPPGTPLASTPSSKPSVLPSPSAGAPASAETPLNPELGDSSASEPGLQAASQPAESPTPQGLVLG
modifications: left off: large carriers
total Mena relative to uninfected Rat2 controls (high GFP-sorted overexpressing population): 3.9 fold
total Mena relative to uninfected Rat2 controls (low GFP-sorted overexpressing population): 1.9 fold
total Mena relative to uninfected Rat2 controls (medium GFP-sorted overexpressing population): 2.7 fold
